This test concerns the target A1 domain of tenascin-C (TNC-A1) (UniProt P24821). The experiment in a line: real-time interaction analysis, BIAcore 3000. On the technique in general: SPR reads the build-up and loss of mass on a sensor chip optically.

Sequences of proteins named here, by UniProt entry; tags and fusion partners are left off. Residues count along the entry.
UniProt P24821, residues 1073-1163: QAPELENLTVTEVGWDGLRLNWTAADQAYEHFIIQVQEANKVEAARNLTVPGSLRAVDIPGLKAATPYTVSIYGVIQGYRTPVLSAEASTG

No constants are given. Whether binding was seen depends on the method and setting. Some results given as binding are weak or reduced against the parent protein; the word gives no strength.

B1: F16 human monoclonal antibody (original clone 4A1-F16) (antibody, V domains shown)
VH: EVQLLESGGGLVQPGGSLRLSCAASGFTFSRYGASWVRQAPGKGLEWVSAISGSGGSTYYADSVKGRFTISRDNSKNTLYLQMNSLRAEDTAVYYCAKAHNAFDYWGQGTLVTVSR
VL: SSELTQDPAVSVALGQTVRITCQGDSLRSYYASWYQQKPGQAPVLVIYGKNNRPSGIPDRFSGSSSGNTASLTITGAQAEDEADYYCNSSVYTMPPVVFGGGTKLTVL
Turning to B1, the binding entry was “binds”.

These data come from patent US20110250170A1 (PHILOGEN S P A, published 2011).
